Measured values published in patent publication US20130273596.

Sequences of proteins named here, by UniProt entry; tags and fusion partners are left off. A change or cut given only in a name is not applied to a line headed by its entry.
UniProt P01103: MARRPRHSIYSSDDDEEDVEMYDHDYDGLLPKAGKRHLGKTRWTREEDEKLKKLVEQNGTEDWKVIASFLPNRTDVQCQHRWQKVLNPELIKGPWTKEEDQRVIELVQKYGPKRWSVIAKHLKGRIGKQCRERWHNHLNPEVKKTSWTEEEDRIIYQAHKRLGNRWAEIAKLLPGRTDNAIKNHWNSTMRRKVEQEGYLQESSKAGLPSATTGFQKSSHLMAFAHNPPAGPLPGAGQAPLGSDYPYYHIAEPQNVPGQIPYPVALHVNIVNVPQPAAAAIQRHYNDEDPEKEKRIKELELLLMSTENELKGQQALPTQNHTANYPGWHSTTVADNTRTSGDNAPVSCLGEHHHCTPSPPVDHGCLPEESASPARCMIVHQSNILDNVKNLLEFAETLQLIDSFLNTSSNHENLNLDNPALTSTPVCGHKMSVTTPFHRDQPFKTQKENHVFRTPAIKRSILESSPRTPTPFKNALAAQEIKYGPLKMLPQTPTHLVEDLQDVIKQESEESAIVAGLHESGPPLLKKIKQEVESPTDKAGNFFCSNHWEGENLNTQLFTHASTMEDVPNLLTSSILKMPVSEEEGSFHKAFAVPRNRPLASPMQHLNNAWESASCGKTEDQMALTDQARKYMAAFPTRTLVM

What was measured:
[1] = target: T1, Ets1 (endogenous) (chicken) (UniProt P13474); assay: pull-down; settings: protein in an extract
T1 sequence (looked up, limits assumed): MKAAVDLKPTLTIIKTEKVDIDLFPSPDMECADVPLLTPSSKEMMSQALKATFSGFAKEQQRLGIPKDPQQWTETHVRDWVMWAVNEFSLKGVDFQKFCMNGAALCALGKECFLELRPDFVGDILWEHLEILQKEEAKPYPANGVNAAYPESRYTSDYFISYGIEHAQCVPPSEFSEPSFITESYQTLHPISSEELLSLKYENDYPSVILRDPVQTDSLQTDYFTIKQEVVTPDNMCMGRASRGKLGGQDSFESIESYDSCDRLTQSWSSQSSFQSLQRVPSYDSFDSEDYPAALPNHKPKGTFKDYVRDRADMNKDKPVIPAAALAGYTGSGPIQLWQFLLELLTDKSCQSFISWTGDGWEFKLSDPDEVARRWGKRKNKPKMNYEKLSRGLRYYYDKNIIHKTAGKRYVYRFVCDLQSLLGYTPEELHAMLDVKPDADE

cMyb (chicken) = cMyb (chicken) (UniProt P01103); assay: EMSA; settings: outcompeted by excess cold probe; absent with control extract; protein in a lysate after overexpression; label: 5' biotin
[2] = target: cMyb (endogenous) (chicken) (UniProt P01103); assay: pull-down; settings: embryonic nuclear extract, 150 mM KCl, poly(dI-dC), RT; protein in an extract; label: 5' biotin
[3] = target: T2, Sox9 (endogenous) (chicken) (UniProt P48434); assay: pull-down; settings: protein in an extract
T2 sequence (looked up, limits assumed): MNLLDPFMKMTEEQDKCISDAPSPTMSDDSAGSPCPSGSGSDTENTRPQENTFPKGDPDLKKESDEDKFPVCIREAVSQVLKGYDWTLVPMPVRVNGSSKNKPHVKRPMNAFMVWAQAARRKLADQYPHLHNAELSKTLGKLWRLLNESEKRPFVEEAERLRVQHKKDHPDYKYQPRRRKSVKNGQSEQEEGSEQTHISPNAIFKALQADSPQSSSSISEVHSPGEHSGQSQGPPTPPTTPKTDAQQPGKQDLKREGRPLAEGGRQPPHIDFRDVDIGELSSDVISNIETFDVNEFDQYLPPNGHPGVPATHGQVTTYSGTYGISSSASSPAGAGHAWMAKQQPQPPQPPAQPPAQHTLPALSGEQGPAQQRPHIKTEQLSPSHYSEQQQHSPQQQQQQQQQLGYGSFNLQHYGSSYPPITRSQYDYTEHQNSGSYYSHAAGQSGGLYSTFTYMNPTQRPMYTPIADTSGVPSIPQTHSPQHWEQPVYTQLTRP

Sox9 (chicken) = Sox9 (chicken) (UniProt P48434); assay: EMSA; settings: outcompeted by excess cold probe; absent with control extract; protein in a lysate after overexpression; label: 5' biotin
Ets1 (chicken) = Ets1 (chicken) (UniProt P13474); assay: EMSA; settings: outcompeted by excess cold probe; absent with control extract; protein in a lysate after overexpression; label: 5' biotin
[4] = scrambled control, specific binding stated, label: biotin
[5] = embryonic nuclear extract, 150 mM KCl, poly(dI-dC), RT, label: 5' biotin

ATGTCTACGTCGAGCGCGACGGCGA (double strand) [Ets1 Co]
binding result [1, 4]: no binding

GCAATTTAACCTACAACTGCTGAGCTTGTA (double strand) [Sox10E2 M2]
binding result (cMyb (chicken)): binds
binding result [2]: binds

GGAGCAGGGAAACAATAGGTGATTT (double strand) [Sox10E2 M8]
binding result [3, 5]: binds

GGCGACTGTGCTTCCGGCTGGGGCAGTG (double strand) [Sox10E2 M4]
binding result [1, 5]: binds

TACGGCAAGCTGTTCATCTGCACCA (double strand) [Sox9 Co]
binding result [3, 4]: no binding

TCAGGGCACAAAGGCCCAACTGTCTAGGGGG (double strand) [Sox10E2 M11/12]
binding result (Sox9 (chicken)): binds
binding result [3, 5]: binds
binding result [2]: binds

TGGCCAGAGAGGAAATTGGGGGTTT (double strand) [Sox10E2 M9]
binding result (Ets1 (chicken)): binds
binding result [1, 5]: binds

At least one result comes from cells or an extract, where the contact may be indirect. For some assays here: For at least one entry, the source does not settle the construct or the ends of the probe. For some assays here: A negative result means that nothing was seen under these conditions. For some assays here: Protein sequences can lack the tags named with them.
